Measurements reported in PubChem BioAssay AID743454 (Peter MacCallum Cancer Centre, 2014).

Aim: 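Knock-downs lowering viability or raising caspase 3/7 activity in vorinostat-treated resistant cells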 (primary screen)
Cells: human HCT116-VR colon cancer cells, selected for vorinostat resistance
Knock-down reagent: siRNA pool against human genes, 40 nM siRNA pool
Time to read-out: vorinostat for 24 h, read-out about 72 h after transfection
Challenge: vorinostat at 2.5 µM final
Read-out: 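Cell viability by CellTiter-Fluor and caspase 3/7 activity by luminescence, each scaled to mock wells per plate, duplicates averaged, then robust z-scored over all plates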
Reading the numbers: viability robust z-score: higher = more viable cells than screen typical; caspase robust z-score: higher = more caspase 3/7 activity than screen typical
Active means: 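Hits are knock-downs in viability class RV1/RV2 or caspase class CA1/CA2, excluding ones that killed cells in the no-drug cell-count arm; hits then retested with single siRNAs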
The whole screen tested about 18,000 reagents; this is an unselected part. Of all reagents, 450 (2.5%) were called active. 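Single biological run; no consistent viability z cut-off exists, so the class columns, not z-scores, define the calls.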 Reagents against one gene are numbered here.

no.	gene knocked down	reagent no.	viability hit class	caspase hit class	viability robust z-score	caspase robust z-score	activity call
1	H2AC17 (GeneID 8336)	1	no change	no change	0.48	0.29	inactive
2	GABRG3 (GeneID 2567)	1	no change	no change	0.01	1.12	inactive
3	SLC6A20 (GeneID 54716)	1	no change	no change	0.22	-0.9	inactive
4	SLCO5A1 (GeneID 81796)	1	no change	no change	0.45	-0.87	inactive
5	UBE2QL1 (GeneID 134111)	1	no change	no change	-0.27	2.38	inactive
6	TTC23 (GeneID 64927)	1	no change	no change	0.32	-0.44	inactive
7	HSPA5 (GeneID 3309)	1	no change	no change	-2.59	0.14	inactive
8	MIS18BP1 (GeneID 55320)	1	no change	no change	0.94	-0.42	inactive
9	HHIPL2 (GeneID 79802)	1	no change	no change	1.14	0.94	inactive
10	NEUROD4 (GeneID 58158)	1	no change	no change	-0.84	0.13	inactive
11	DPT (GeneID 1805)	1	no change	no change	1.69	1.02	inactive
12	NUP188 (GeneID 23511)	1	no change	no change	-0.49	3.02	inactive
13	AOPEP (GeneID 84909)	1	no change	no change	1.12	-0.54	inactive
14	OR10H4 (GeneID 126541)	1	no change	no change	-0.54	1.04	inactive
15	DOK2 (GeneID 9046)	1	no change	no change	-1.29	1.36	inactive
16	TBX6 (GeneID 6911)	1	no change	no change	-0.65	0.62	inactive
17	SLU7 (GeneID 10569)	1	RV2 (reduced viability)	no change	-3.13	0.94	active
18	PLEKHA8P1 (GeneID 51054)	1	no change	no change	0.49	0.42	inactive
19	AIRE (GeneID 326)	1	no change	no change	-0.44	-1.02	inactive
20	PNMA1 (GeneID 9240)	1	no change	no change	0.92	-0.84	inactive
21	CHRNE (GeneID 1145)	1	no change	no change	0.98	0.58	inactive
22	ABHD6 (GeneID 57406)	1	no change	no change	0.68	-0.12	inactive
23	HMMR (GeneID 3161)	1	no change	no change	1.12	-0.28	inactive
24	TMEM243 (GeneID 79161)	1	no change	no change	-0.1	-0.93	inactive
25	NUDT13 (GeneID 25961)	1	no change	no change	0.34	-0.49	inactive
26	COMMD2 (GeneID 51122)	1	no change	CA1 (caspase activation)	-1.23	6.35	active
27	VWA3B (GeneID 200403)	1	no change	no change	-0.56	-0.96	inactive
28	IL1B (GeneID 3553)	1	no change	no change	0.06	0.1	inactive
29	ADAMTS8 (GeneID 11095)	1	no change	no change	-0.92	0.58	inactive
30	CNN3 (GeneID 1266)	1	no change	no change	-0.03	-0.7	inactive
31	RHCE (GeneID 6006)	1	no change	no change	-0.39	0.54	inactive
32	ZNG1F (GeneID 644019)	1	no change	no change	0.26	-0.32	inactive
33	HCN2 (GeneID 610)	1	no change	no change	-0.82	-0.32	inactive
34	DENND11 (GeneID 57189)	1	no change	no change	0.24	-0.89	inactive
35	CARF (GeneID 79800)	1	no change	no change	-0.36	2.83	inactive
36	COXFA4L3 (GeneID 84419)	1	no change	no change	-2.49	-0.83	inactive
37	GABRR2 (GeneID 2570)	1	no change	no change	0.22	-0.96	inactive
38	MEMO1 (GeneID 51072)	1	no change	no change	-0.52	-0.53	inactive
39	PAM (GeneID 5066)	1	no change	no change	1.38	0.32	inactive
40	MAEL (GeneID 84944)	1	no change	no change	-0.58	1.64	inactive
41	THBS3 (GeneID 7059)	1	no change	no change	0.48	2.84	inactive
42	CFAP46 (GeneID 54777)	1	no change	no change	0.76	-0.18	inactive
43	CFAP46 (GeneID 54777)	2	no change	no change	0.44	-0.24	inactive
44	SLC4A1AP (GeneID 22950)	1	no change	no change	-0.81	-0.38	inactive
45	MRPL27 (GeneID 51264)	1	no change	no change	1.3	1.07	inactive
46	NIM1K (GeneID 167359)	1	no change	no change	0.08	-0.1	inactive
47	TBC1D3C (GeneID 414060)	1	no change	no change	0.74	0.16	inactive
48	DAPK1 (GeneID 1612)	1	no change	no change	0.03	-0.79	inactive
49	LYSMD3 (GeneID 116068)	1	no change	no change	-0.58	0.82	inactive
50	HS3ST2 (GeneID 9956)	1	no change	no change	0.84	-0.16	inactive
51	CEPT1 (GeneID 10390)	1	no change	no change	0.28	1.98	inactive
52	PATE1 (GeneID 160065)	1	no change	no change	0.1	-0.26	inactive
53	ELF5 (GeneID 2001)	1	no change	no change	0.04	-0.97	inactive
54	NAF1 (GeneID 92345)	1	no change	no change	-0.82	1.68	inactive
55	HPGDS (GeneID 27306)	1	no change	no change	0.91	-0.29	inactive
56	CD99 (GeneID 4267)	1	no change	no change	-0.49	0.14	inactive
57	RASL10A (GeneID 10633)	1	no change	no change	-0.62	-0.74	inactive
58	SUZ12 (GeneID 23512)	1	no change	no change	-0.88	-0.06	inactive
59	DMAC2L (GeneID 27109)	1	no change	no change	0.72	-0.5	inactive
60	HDGFL1 (GeneID 154150)	1	no change	no change	1.1	0.07	inactive
61	FSAF1 (GeneID 128061)	1	no change	no change	-1.32	0.84	inactive
62	TCP11 (GeneID 6954)	1	no change	no change	-1.04	1.44	inactive
63	PKM (GeneID 5315)	1	no change	no change	0.15	1.6	inactive
64	ZNF136 (GeneID 7695)	1	no change	no change	0.15	-0.3	inactive
65	ORAI3 (GeneID 93129)	1	no change	no change	0.57	1.52	inactive
66	SPATA32 (GeneID 124783)	1	no change	no change	-0.75	1.68	inactive
67	APOBEC3D (GeneID 140564)	1	no change	no change	-1.2	0.98	inactive
68	ZNF157 (GeneID 7712)	1	no change	no change	-0.94	-0.16	inactive
69	CCNG1 (GeneID 900)	1	no change	no change	0.9	0.32	inactive
70	SMIM14 (GeneID 201895)	1	no change	no change	0.1	-0.88	inactive
71	VPS53 (GeneID 55275)	1	no change	no change	0.25	-0.55	inactive
72	PRDM4 (GeneID 11108)	1	no change	no change	0.11	-1.12	inactive
73	TFCP2L1 (GeneID 29842)	1	no change	no change	-0.68	1.13	inactive

Sorted by “viability robust z-score” (highest first): some entries from above
gene knocked down	reagent no.	viability hit class	caspase hit class	viability robust z-score	caspase robust z-score	activity call
CCNG1 (GeneID 900)	1	no change	no change	0.9	0.32	inactive
ORAI3 (GeneID 93129)	1	no change	no change	0.57	1.52	inactive
VPS53 (GeneID 55275)	1	no change	no change	0.25	-0.55	inactive
SMIM14 (GeneID 201895)	1	no change	no change	0.1	-0.88	inactive
SPATA32 (GeneID 124783)	1	no change	no change	-0.75	1.68	inactive
ZNF157 (GeneID 7712)	1	no change	no change	-0.94	-0.16	inactive
APOBEC3D (GeneID 140564)	1	no change	no change	-1.2	0.98	inactive
